# Assay results from article PMC7819943, “Rice protein-binding microarrays: a tool to detect cis-acting elements near promoter regions in rice”.
# Chains of the proteins cited; added tags and fusions are not shown.
# UniProt Q0JBA9, entry or part of it: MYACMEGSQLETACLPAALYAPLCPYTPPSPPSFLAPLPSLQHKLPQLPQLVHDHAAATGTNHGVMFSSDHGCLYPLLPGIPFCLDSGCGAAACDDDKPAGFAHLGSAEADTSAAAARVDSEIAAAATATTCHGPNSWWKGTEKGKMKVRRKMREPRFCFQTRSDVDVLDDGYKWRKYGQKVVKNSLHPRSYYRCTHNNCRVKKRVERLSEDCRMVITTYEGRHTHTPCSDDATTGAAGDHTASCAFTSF
# Some of the results follow.
# Target: OsWRKY34 (Oryza sativa, UniProt Q0JBA9 1-250)
# Experiment: protein-binding microarray (RPBM); PBS, 2% BSA, 51.3 ng/ul salmon testes DNA, 50 uM zinc acetate, 200 nM TF, 25 C, 1 h; high values mean tight binding
# Details: protein: recombinant; tags: N-terminal polyhistidine and DsRed monomer fusion (pET32a); label: CyDye5-dUTP incorporated in the synthesized complementary strand; 3' TTTTT single-stranded linker to array surface; dsDNA, one strand shown
# Method in brief: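 In PBS with 2% BSA, salmon testes DNA and 50 µM zinc acetate, 200 nM protein was incubated on a custom Agilent array at 25 °C for 1 h and then washed off. The array had been made double-stranded by primer extension with Cy5-dUTP and blocked with 2% BSA. The proteins were transcription factors fused N-terminally to polyhistidine and DsRed, expressed in E. coli BL21-CodonPlus and purified on Ni–NTA. The binding signal is per-feature fluorescence intensity (arbitrary units) from an Axon 4000B scanner.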
row,Sequence,binding signal
1,ACACCGTTGACTTTTCGACTAACGTTTGACCATTTGTTTTCGGAGTCACCTAGTGCAG,49300 fluorescence intensity (a.u.)
2,ATCAGTTTCTCTCAAATTTTAGTTTTCATATTTTGTACTCCGGAGTCACCTAGTGCAG,8680 fluorescence intensity (a.u.)
3,GGGCTTTTTGGAAATTTGCTTTATTGCGTGCTGTCACATTCGGAGTCACCTAGTGCAG,10600 fluorescence intensity (a.u.)
4,TACTTTTCCTTCTCGACACTACAGTGCCTTCACCTCTTTTCGGAGTCACCTAGTGCAG,9600 fluorescence intensity (a.u.)
5,GGCAGTATTGTTTTTACCTCCTGCTACCTTACTTACATGGCGGAGTCACCTAGTGCAG,9700 fluorescence intensity (a.u.)
6,ATCCTCGCGCCATTAGCTTCGCCTCGACGAGTTGATTCCACGGAGTCACCTAGTGCAG,11400 fluorescence intensity (a.u.)
7,GGTTGTCTATTTTATTTTCTGCGGAGGGAGTAATGTTTTTCGGAGTCACCTAGTGCAG,14400 fluorescence intensity (a.u.)
8,TCTTCACACACACACGCACAACCAACCGCGCCGCCCACACCGGAGTCACCTAGTGCAG,8880 fluorescence intensity (a.u.)
9,GCACGGGCCCACCCGACTTCGGTTGACCAGGGAGCCCACCCGGAGTCACCTAGTGCAG,8610 fluorescence intensity (a.u.)
10,TCATCCACTAATATAAGAGATTTTGACTTTCTCTTACACTCGGAGTCACCTAGTGCAG,8460 fluorescence intensity (a.u.)
11,ACTTATTTTCCTGTTTCATTTAGATGGCCAGTGTCGCACACGGAGTCACCTAGTGCAG,8860 fluorescence intensity (a.u.)
12,ATATTTCCTGTTTGCTCTGTGTTTTCTTCCACCTTCCATTCGGAGTCACCTAGTGCAG,9830 fluorescence intensity (a.u.)
13,CAGGGGCATTTTTCTCCGTTCGGGCATTATAGCGTGTAGTCGGAGTCACCTAGTGCAG,8320 fluorescence intensity (a.u.)
14,TGTCCAGTACTAGTTTTTTTTATGATGTAGAGTTTATGGACGGAGTCACCTAGTGCAG,8490 fluorescence intensity (a.u.)
15,AATTTGTATCGTTGTTTGCTTGAGCCATATTTATGTTACACGGAGTCACCTAGTGCAG,10700 fluorescence intensity (a.u.)
16,GATTCAAAATTCTTTCCTATATCTTCCATTTAAATTTTTTCGGAGTCACCTAGTGCAG,9520 fluorescence intensity (a.u.)
17,CGCCGCTACTCCTTCCCTCCTCGCGCGGCCGCCGCCGCCGCGGAGTCACCTAGTGCAG,8270 fluorescence intensity (a.u.)
18,AGACAGAGTTTGACTTCCATGGTCTTCCTACTTCTTACCTCGGAGTCACCTAGTGCAG,9720 fluorescence intensity (a.u.)
19,CTTCCTCTTTGGTTTTTCAGATCGATTGATTCGTGTTGAACGGAGTCACCTAGTGCAG,9620 fluorescence intensity (a.u.)
20,GTCTATAAAACCGCGACCTATGCTCTCACGCGCGGACCACCGGAGTCACCTAGTGCAG,10700 fluorescence intensity (a.u.)
21,TTCATCGAAGTTTATTTTTCAGCCTTTACTTTTAGATCGCCGGAGTCACCTAGTGCAG,8620 fluorescence intensity (a.u.)
22,CATTTGTCGTTGGGTTTGCAATTAGCGCTCCTCAGATATTCGGAGTCACCTAGTGCAG,12800 fluorescence intensity (a.u.)
23,AGACAAACCCTGATTTCCGTGTCCAACATTTAACCGTCCGCGGAGTCACCTAGTGCAG,8690 fluorescence intensity (a.u.)

# Two entries from above, set out differently:
row | Sequence | binding signal
2 | ATCAGTTTCTCTCAAATTTTAGTTTTCATATTTTGTACTCCGGAGTCACCTAGTGCAG | 8680 fluorescence intensity (a.u.)
3 | GGGCTTTTTGGAAATTTGCTTTATTGCGTGCTGTCACATTCGGAGTCACCTAGTGCAG | 10600 fluorescence intensity (a.u.)
